This is an account of results in paper PMC8655878.

The chains behind the UniProt entries cited, without tags or fusion partners.
UniProt P49023: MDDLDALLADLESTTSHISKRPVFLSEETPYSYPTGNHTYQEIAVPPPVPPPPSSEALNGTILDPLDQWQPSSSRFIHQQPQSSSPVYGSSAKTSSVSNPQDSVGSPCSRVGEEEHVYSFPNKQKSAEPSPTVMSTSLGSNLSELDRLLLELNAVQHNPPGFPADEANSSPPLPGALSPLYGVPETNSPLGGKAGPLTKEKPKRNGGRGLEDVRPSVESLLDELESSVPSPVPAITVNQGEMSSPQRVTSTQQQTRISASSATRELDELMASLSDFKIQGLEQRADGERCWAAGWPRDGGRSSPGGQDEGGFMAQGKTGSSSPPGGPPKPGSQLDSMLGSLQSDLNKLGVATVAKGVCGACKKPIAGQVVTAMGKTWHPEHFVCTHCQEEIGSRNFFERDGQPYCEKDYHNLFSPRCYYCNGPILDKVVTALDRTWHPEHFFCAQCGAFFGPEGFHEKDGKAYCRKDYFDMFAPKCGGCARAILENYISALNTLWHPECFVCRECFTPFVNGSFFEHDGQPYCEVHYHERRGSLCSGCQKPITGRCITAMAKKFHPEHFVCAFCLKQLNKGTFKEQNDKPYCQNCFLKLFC

These are yes or no findings as the source states them, for the method shown. Binding seen in cells or lysates may run through a third protein. Some entries that bind do so weakly or less than the wild type. Tags and fused reporters may be left off the sequences shown.

The target in assay [1] is T1, GFP tagged α4 integrin (Integrin alpha4 EGFP-N3) (UniProt P13612).
T1 sequence: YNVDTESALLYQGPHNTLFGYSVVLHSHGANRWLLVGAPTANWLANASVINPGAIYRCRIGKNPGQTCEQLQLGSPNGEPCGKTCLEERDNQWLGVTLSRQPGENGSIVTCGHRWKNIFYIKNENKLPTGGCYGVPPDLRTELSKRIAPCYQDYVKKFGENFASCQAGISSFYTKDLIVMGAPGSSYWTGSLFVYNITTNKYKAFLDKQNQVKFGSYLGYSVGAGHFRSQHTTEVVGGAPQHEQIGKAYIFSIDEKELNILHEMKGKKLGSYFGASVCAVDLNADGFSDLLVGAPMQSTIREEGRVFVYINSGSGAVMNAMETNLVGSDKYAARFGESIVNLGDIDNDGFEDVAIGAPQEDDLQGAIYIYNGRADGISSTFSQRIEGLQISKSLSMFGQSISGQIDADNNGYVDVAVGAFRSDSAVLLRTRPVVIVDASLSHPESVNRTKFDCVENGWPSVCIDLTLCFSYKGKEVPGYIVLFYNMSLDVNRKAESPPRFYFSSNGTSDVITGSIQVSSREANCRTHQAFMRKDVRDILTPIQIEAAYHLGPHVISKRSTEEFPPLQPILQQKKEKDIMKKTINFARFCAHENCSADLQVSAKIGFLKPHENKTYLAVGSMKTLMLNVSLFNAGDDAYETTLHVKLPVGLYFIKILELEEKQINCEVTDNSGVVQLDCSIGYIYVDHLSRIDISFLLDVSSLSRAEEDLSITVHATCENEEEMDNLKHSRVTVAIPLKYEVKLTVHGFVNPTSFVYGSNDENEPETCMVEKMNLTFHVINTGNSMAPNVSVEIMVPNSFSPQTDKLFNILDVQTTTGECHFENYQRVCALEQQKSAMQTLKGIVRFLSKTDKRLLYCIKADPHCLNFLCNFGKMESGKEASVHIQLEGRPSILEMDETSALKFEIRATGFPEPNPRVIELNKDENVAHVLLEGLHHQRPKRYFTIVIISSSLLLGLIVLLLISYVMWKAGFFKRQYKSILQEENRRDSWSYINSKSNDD
Put plainly: co-IP; GFP-TRAP beads on whole cell lysates of confluent NEB-1 keratinocyte monolayers transiently expressing GFP, α4-GFP or α9-GFP for 48 h, treated with DMSO or BOP for 1 h; Western blot for paxillin, Importin 7 and GFP.

Assay [2] deals with T2, GFP tagged α9 integrin (Integrin alpha9 EGFP-N3) (human) (UniProt Q13797).
T2 sequence: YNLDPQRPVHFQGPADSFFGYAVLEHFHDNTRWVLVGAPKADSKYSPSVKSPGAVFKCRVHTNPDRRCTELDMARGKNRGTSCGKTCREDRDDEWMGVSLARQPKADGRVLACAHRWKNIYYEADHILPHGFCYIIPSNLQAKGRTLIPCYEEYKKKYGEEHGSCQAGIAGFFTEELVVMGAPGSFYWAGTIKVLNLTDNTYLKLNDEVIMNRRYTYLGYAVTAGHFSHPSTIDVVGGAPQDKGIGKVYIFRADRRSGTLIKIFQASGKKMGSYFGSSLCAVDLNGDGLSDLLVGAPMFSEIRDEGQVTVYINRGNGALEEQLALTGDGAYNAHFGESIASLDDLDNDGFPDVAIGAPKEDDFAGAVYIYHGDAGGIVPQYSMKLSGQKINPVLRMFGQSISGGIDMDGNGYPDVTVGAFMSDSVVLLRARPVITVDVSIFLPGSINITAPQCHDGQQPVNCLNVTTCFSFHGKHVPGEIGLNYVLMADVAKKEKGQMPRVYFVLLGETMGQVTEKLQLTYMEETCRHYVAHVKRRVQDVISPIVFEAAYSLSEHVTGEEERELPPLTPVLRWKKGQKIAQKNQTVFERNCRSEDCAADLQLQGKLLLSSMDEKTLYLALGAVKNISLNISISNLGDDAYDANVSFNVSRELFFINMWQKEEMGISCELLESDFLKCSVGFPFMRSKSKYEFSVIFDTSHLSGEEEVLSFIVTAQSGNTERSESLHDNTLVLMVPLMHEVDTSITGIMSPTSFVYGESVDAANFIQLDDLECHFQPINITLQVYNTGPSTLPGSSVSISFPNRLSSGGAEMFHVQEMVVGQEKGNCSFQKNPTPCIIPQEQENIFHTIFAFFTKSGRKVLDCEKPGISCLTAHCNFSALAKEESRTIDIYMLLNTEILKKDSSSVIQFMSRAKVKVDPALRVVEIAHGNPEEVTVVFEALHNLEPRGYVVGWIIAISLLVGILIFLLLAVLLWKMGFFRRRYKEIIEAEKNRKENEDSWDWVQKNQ
Described as above.

In the case of paxillin (from UniProt P49023 1-591), the binding entry in assay [1] and in assay [2] was “binds” throughout.
